No constants are given. Whether binding was seen depends on the method and setting. In cells and extracts the contact can be indirect. Some results given as binding are weak or reduced against the parent protein; the word gives no strength.
Target: Androgen receptor (human (endogenous in LAPC4)) (UniProt P10275)
Assay: co-IP; LAPC4 lysate (Buffer A: 50 mM Tris-Cl pH 7.4, 150 mM NaCl, 5 mM EDTA, 0.5% Nonidet P-40); precipitated with anti-AR (AR441) or control antibody (anti-Lyn), protein A sepharose; blots for AR and SOX9

Chains of the proteins cited; added tags and fusions are not shown.
UniProt P10275: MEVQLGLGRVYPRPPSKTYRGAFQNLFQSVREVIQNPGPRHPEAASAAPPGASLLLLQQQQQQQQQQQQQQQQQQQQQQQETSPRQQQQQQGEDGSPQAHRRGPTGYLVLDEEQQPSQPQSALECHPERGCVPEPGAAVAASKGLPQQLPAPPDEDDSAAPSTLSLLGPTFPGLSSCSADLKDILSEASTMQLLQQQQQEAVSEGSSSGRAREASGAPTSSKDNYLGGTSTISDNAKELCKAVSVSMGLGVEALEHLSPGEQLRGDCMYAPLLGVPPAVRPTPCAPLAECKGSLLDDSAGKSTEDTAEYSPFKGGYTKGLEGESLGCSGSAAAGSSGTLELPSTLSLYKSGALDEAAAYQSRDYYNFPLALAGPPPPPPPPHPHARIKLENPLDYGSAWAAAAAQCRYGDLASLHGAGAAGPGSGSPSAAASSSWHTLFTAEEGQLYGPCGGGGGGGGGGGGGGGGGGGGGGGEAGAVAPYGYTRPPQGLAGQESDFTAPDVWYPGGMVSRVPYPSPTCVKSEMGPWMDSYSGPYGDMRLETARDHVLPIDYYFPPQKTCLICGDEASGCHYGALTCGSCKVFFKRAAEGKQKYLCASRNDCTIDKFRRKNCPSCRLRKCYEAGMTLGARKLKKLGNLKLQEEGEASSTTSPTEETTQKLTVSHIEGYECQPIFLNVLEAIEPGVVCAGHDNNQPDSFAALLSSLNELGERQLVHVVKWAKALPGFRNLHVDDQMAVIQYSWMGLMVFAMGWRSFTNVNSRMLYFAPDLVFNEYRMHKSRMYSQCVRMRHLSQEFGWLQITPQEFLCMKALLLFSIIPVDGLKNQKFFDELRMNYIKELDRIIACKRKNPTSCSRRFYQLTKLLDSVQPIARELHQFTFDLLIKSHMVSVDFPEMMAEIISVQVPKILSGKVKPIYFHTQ
UniProt P48436: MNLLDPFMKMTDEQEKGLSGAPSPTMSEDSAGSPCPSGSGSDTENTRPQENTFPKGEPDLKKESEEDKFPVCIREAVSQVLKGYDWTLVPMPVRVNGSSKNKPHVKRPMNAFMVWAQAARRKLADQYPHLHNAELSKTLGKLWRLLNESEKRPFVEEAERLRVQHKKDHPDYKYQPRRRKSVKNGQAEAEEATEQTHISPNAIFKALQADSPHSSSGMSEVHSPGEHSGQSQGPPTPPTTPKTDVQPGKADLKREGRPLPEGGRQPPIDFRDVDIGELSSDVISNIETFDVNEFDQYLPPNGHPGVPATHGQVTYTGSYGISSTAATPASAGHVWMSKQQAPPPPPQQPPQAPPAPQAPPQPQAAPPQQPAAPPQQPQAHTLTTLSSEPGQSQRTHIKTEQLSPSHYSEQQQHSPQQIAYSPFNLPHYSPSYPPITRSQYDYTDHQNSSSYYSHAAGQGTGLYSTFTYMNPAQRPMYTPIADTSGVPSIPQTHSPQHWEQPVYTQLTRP

SOX9 (from UniProt P48436 1-509)
binding: binds

Reference: PMC3464259
